# Assay results reported in PMC10631681, “The structural basis of mRNA recognition and binding by yeast pseudouridine synthase PUS1”.
# Numbering of substitutions follows the chain as printed. For at least one entry, the source does not settle the construct or the ends of the probe. At least one verdict was read from the data and is not stated in words by the source. Where a protein sequence is shown, tags need not be part of it.
# Columns and labels:
# [1] = biological target: T1, PUS1 R132A (Saccharomyces cerevisiae) (UniProt Q12211); experiment: EMSA; details: 100 nM RNA, 100 nM-1 uM protein, no reduction of binding vs wild type; 90 min, SYBR Gold stain; recombinant protein; residues 1-544
# T1 sequence (looked up): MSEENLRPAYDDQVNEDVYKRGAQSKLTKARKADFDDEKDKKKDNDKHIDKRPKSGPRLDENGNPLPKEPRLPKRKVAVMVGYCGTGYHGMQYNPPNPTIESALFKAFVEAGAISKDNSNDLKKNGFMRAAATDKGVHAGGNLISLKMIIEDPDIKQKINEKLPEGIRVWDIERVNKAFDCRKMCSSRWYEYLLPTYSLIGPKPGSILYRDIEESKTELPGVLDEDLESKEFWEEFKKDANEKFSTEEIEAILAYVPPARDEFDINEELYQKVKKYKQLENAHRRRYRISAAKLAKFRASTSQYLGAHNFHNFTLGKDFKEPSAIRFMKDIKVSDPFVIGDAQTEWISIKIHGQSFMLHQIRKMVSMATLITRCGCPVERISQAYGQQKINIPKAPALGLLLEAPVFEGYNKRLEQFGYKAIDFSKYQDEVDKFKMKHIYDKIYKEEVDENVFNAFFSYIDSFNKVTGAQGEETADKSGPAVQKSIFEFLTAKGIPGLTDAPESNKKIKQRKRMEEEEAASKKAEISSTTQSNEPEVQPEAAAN
# [2] = biological target: T2, PUS1 R362A (Saccharomyces cerevisiae) (UniProt Q12211); experiment: EMSA; details: 100 nM RNA, 100 nM-1 uM protein, no reduction of binding vs wild type; 90 min, SYBR Gold stain; recombinant protein; residues 1-544
# T2 sequence (looked up): T1 sequence (looked up) with A132R, R362A
sequence,measurement,setting,value
AAAUCGGGAUUCCGGAUA [R263 (EMSA)],binding result,[1],binds
same,binding result,[2],binds
